Assay results reported in the supplement of paper PMC8728848.
This is one part of the list.

Assays:
Assay in all cases: glycan array binding signal (z-score within array); higher = stronger binding
Settings in all cases: glycan notation: IUPAC condensed, linker removed
[1] = biological target: Fuc(a1-3)[Gal3S(b1-4)]GlcNAc
In short: (§1)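 From the Consortium for Functional Glycomics database, 3228 arrays were curated, keeping only those whose protein sequence was available. Binding is given as a within-array Z-score averaged across arrays sharing a protein sequence and across linkers. Negative Z-scores can be read as non-binding.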

[2] = biological target: Fuc(a1-3)[Gal3S(b1-4)]GlcNAc6S
In short: as §1

[3] = biological target: Fuc(a1-3)[GalNAc(b1-4)]GlcNAc
In short: as §1

[4] = biological target: Fuc(a1-3)[GalNAc(b1-4)]GlcNAc6S
In short: as §1

Fuc(a1-4)GlcNAc = biological target: Fuc(a1-4)GlcNAc
In short: as §1

Fuc(b1-3)GlcNAc = biological target: Fuc(b1-3)GlcNAc
In short: as §1

Gal(a1-2)Gal = biological target: Gal(a1-2)Gal
In short: as §1

Gal(a1-3)Gal = biological target: Gal(a1-3)Gal
In short: as §1

Gal(a1-3)Gal(b1-3)GlcNAc = biological target: Gal(a1-3)Gal(b1-3)GlcNAc
In short: as §1

[5] = biological target: Gal(a1-3)Gal(b1-3)GlcNAc(b1-2)Man
In short: as §1

[6] = biological target: Gal(a1-3)Gal(b1-3)GlcNAc(b1-2)Man(a1-3)[Gal(a1-3)Gal(b1-3)GlcNAc(b1-2)Man(a1-6)]Man(b1-4)GlcNAc(b1-4)GlcNAc
In short: as §1

[7] = biological target: Gal(a1-3)Gal(b1-3)GlcNAc(b1-3)GalNAc
In short: as §1

[8] = biological target: Gal(a1-3)Gal(b1-3)GlcNAc(b1-6)GalNAc
In short: as §1

[9] = biological target: Gal(a1-3)Gal(b1-3)[Fuc(a1-4)]GlcNAc(b1-2)Man(a1-3)[Gal(a1-3)Gal(b1-3)[Fuc(a1-4)]GlcNAc(b1-2)Man(a1-6)]Man(b1-4)GlcNAc(b1-4)GlcNAc
In short: as §1

Gal(a1-3)Gal(b1-4)Glc = biological target: Gal(a1-3)Gal(b1-4)Glc
In short: as §1

Gal(a1-3)Gal(b1-4)GlcNAc = biological target: Gal(a1-3)Gal(b1-4)GlcNAc
In short: as §1

[10] = biological target: Gal(a1-3)Gal(b1-4)GlcNAc(b1-2)Man
In short: as §1

[11] = biological target: Gal(a1-3)Gal(b1-4)GlcNAc(b1-2)Man(a1-3)[Gal(a1-3)Gal(b1-4)GlcNAc(b1-2)Man(a1-6)]Man(b1-4)GlcNAc(b1-4)GlcNAc
In short: as §1

[12] = biological target: Gal(a1-3)Gal(b1-4)GlcNAc(b1-3)GalNAc
In short: as §1

[13] = biological target: Gal(a1-3)Gal(b1-4)GlcNAc(b1-6)GalNAc
In short: as §1

[14] = biological target: Gal(a1-3)Gal(b1-4)[Fuc(a1-3)]GlcNAc
In short: as §1

[15] = biological target: Gal(a1-3)Gal(b1-4)[Fuc(a1-3)]GlcNAc(b1-2)Man(a1-3)[Gal(a1-3)Gal(b1-4)[Fuc(a1-3)]GlcNAc(b1-2)Man(a1-6)]Man(b1-4)GlcNAc(b1-4)GlcNAc
In short: as §1

Gal(a1-3)GalNAc = biological target: Gal(a1-3)GalNAc
In short: as §1

[16] = biological target: Gal(a1-3)[Gal(a1-4)]Gal(b1-4)GlcNAc
In short: as §1

[17] = biological target: Gal(a1-4)Gal(b1-3)GlcNAc(b1-2)Man(a1-3)[Gal(a1-4)Gal(b1-3)GlcNAc(b1-2)Man(a1-6)]Man(b1-4)GlcNAc(b1-4)GlcNAc
In short: as §1

Gal(a1-4)Gal(b1-4)Glc = biological target: Gal(a1-4)Gal(b1-4)Glc
In short: as §1

Gal(a1-4)Gal(b1-4)GlcNAc = biological target: Gal(a1-4)Gal(b1-4)GlcNAc
In short: as §1

[18] = biological target: Gal(a1-4)Gal(b1-4)GlcNAc(b1-2)Man(a1-3)[Gal(a1-4)Gal(b1-4)GlcNAc(b1-2)Man(a1-6)]Man(b1-4)GlcNAc(b1-4)GlcNAc
In short: as §1

[19] = biological target: Gal(a1-4)Gal(b1-4)GlcNAc(b1-3)Gal(b1-4)Glc
In short: as §1

Gal(a1-4)GlcNAc = biological target: Gal(a1-4)GlcNAc
In short: as §1

Gal(a1-6)Glc = biological target: Gal(a1-6)Glc
In short: as §1

Gal(b1-2)Gal = biological target: Gal(b1-2)Gal
In short: as §1

Gal(b1-3)Gal = biological target: Gal(b1-3)Gal
In short: as §1

Gal(b1-3)Gal(b1-4)GlcNAc = biological target: Gal(b1-3)Gal(b1-4)GlcNAc
In short: as §1

Gal(b1-3)GalNAc = biological target: Gal(b1-3)GalNAc
In short: as §1

[20] = biological target: Gal(b1-3)GalNAc(a1-3)[Fuc(a1-2)]Gal(b1-4)Glc
In short: as §1

[21] = biological target: Gal(b1-3)GalNAc(a1-3)[Fuc(a1-2)]Gal(b1-4)GlcNAc
In short: as §1

Gal(b1-3)GalNAc(b1-3)Gal = biological target: Gal(b1-3)GalNAc(b1-3)Gal
In short: as §1

[22] = biological target: Gal(b1-3)GalNAc(b1-3)Gal(a1-4)Gal(b1-4)Glc
In short: as §1

[23] = biological target: Gal(b1-3)GalNAc(b1-4)Gal(b1-4)Glc
In short: as §1

[24] = biological target: Gal(b1-3)GalNAc(b1-4)[Neu5Ac(a2-3)]Gal(b1-4)Glc
In short: as §1

Gal(b1-3)GlcNAc = biological target: Gal(b1-3)GlcNAc
In short: as §1

[25] = biological target: Gal(b1-3)GlcNAc(a1-3)Gal(b1-4)GlcNAc
In short: as §1

[26] = biological target: Gal(b1-3)GlcNAc(a1-6)Gal(b1-4)GlcNAc
In short: as §1

Gal(b1-3)GlcNAc(b1-2)Man = biological target: Gal(b1-3)GlcNAc(b1-2)Man
In short: as §1

B1: XTP3-B-MRH1 (Homo sapiens), Q96DZ1 (protein)
chain: LLEPLFKQSSCSYRIESYWTYEVCHGKHIRQYHEEKETGQKINIHEYYLGNMLAKNLLFEKEREAEEKEKSNEIPTKNIEGQMTPYYPVGMGNGTPCSLKQNRPRSSTVMYICHPESKHEILSVAEVTTCEYEVVILTPLLCSHPKYRFRA
B1 was tested, and the “glycan array binding signal (z-score)” value [1] was -1.1, the “glycan array binding signal (z-score)” value [2] was -0.786 and the “glycan array binding signal (z-score)” value [3] was -0.597. The “glycan array binding signal (z-score)” value [4] was -0.658, the “glycan array binding signal (z-score)” value (Fuc(a1-4)GlcNAc) was -0.165 and the “glycan array binding signal (z-score)” value (Fuc(b1-3)GlcNAc) was 0.382. For the same binder, the “glycan array binding signal (z-score)” value (Gal(a1-2)Gal) was -0.427, the “glycan array binding signal (z-score)” value (Gal(a1-3)Gal) was -0.197 and the “glycan array binding signal (z-score)” value (Gal(a1-3)Gal(b1-3)GlcNAc) was -0.328. For the same binder, the “glycan array binding signal (z-score)” value [5] was -0.296, the “glycan array binding signal (z-score)” value [6] was 1.12 and the “glycan array binding signal (z-score)” value [7] was -0.13. For the same binder, the “glycan array binding signal (z-score)” value [8] was -0.349, the “glycan array binding signal (z-score)” value [9] was -0.237 and the “glycan array binding signal (z-score)” value (Gal(a1-3)Gal(b1-4)Glc) was -0.843. The “glycan array binding signal (z-score)” value (Gal(a1-3)Gal(b1-4)GlcNAc) was 0.128, the “glycan array binding signal (z-score)” value [10] was -0.95 and the “glycan array binding signal (z-score)” value [11] was -0.041. The “glycan array binding signal (z-score)” value [12] was 0.873, the “glycan array binding signal (z-score)” value [13] was 1.2 and the “glycan array binding signal (z-score)” value [14] was 0.562. The “glycan array binding signal (z-score)” value [15] was 2.03, the “glycan array binding signal (z-score)” value (Gal(a1-3)GalNAc) was 0.362 and the “glycan array binding signal (z-score)” value [16] was -0.853. The “glycan array binding signal (z-score)” value [17] was -0.616, the “glycan array binding signal (z-score)” value (Gal(a1-4)Gal(b1-4)Glc) was 2.03 and the “glycan array binding signal (z-score)” value (Gal(a1-4)Gal(b1-4)GlcNAc) was 0.465. For the same binder, the “glycan array binding signal (z-score)” value [18] was -0.449, the “glycan array binding signal (z-score)” value [19] was -0.086 and the “glycan array binding signal (z-score)” value (Gal(a1-4)GlcNAc) was -0.058. The “glycan array binding signal (z-score)” value (Gal(a1-6)Glc) was -0.507, the “glycan array binding signal (z-score)” value (Gal(b1-2)Gal) was 1.1 and the “glycan array binding signal (z-score)” value (Gal(b1-3)Gal) was 0.294. For the same binder, the “glycan array binding signal (z-score)” value (Gal(b1-3)Gal(b1-4)GlcNAc) was 0.861, the “glycan array binding signal (z-score)” value (Gal(b1-3)GalNAc) was -0.634 and the “glycan array binding signal (z-score)” value [20] was -0.458. The “glycan array binding signal (z-score)” value [21] was 1.11, the “glycan array binding signal (z-score)” value (Gal(b1-3)GalNAc(b1-3)Gal) was -0.305 and the “glycan array binding signal (z-score)” value [22] was -1.21. For the same binder, the “glycan array binding signal (z-score)” value [23] was 0.299, the “glycan array binding signal (z-score)” value [24] was -0.533 and the “glycan array binding signal (z-score)” value (Gal(b1-3)GlcNAc) was -0.468. The “glycan array binding signal (z-score)” value [25] was 1.09, the “glycan array binding signal (z-score)” value [26] was 1.46 and the “glycan array binding signal (z-score)” value (Gal(b1-3)GlcNAc(b1-2)Man) was -0.297.
